Results from patent US20190224274.
Negatives hold for the conditions tested. The comparison behind a weaker result is the experiment's own reference, which may not be listed here.

Protein sequences, listed by entry. Tags and fused reporters are not part of them. Lines headed by an entry give the natural chain unless they say otherwise; changes in a name come on top.
UniProt P14174: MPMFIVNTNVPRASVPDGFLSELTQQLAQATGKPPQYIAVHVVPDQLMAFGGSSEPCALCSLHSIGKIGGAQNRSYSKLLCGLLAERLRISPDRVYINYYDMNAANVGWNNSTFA

Experiments:
MIF (Homo sapiens) [1] = biological target: MIF (Homo sapiens) (UniProt P14174); assay: enzyme reaction in vitro; details: purified recombinant protein, protein details: GST tag removed (pGex-6P-1)
MIF (Homo sapiens) [2] = biological target: MIF (Homo sapiens) (UniProt P14174); assay: EMSA; details: 10 mM Mg2+, purified recombinant protein, protein details: GST tag removed (pGex-6P-1), label: 5' biotin, single-stranded DNA
[3] = endo Y, exo Y, label: 5' biotin, single-stranded DNA, variant of PS30

| Sequence | activity on this sequence (MIF (Homo sapiens) [1]; [3]) | other results |
| --- | --- | --- |
| CTCAAAATCCCAAGTAGCTGGGATTACAGG [m17] | active |  |
| TGGGATTACAGGCGTGAGCCACCACGCCC [BS2] |  | activity on this sequence (MIF (Homo sapiens) [1]; endo Y, exo Y, label: 5' biotin, single-stranded DNA): active |
| CCTGTAATCCCAAGTAGCTGGGATTACAGG [SL] |  | binding result (MIF (Homo sapiens) [2]; variant of PS30): binds more weakly |
| CTCAGCCTCCCAAGTAAACGGGATTACAGG [m14] | active |  |
| CTCAGCCTCCCAAGTAGCTGGGATTACAGGTAAACTTGGT [PS40] | active |  |
| TCCCAAGTAGCTGGGATTACAGGAAAAAAA (double strand) [dsRF] |  | activity on this sequence (MIF (Homo sapiens) [1]; 1-4 uM MIF, not cleaved, label: 5' biotin, variant of RF): not active |
| CTCAAAAAAACAAGTAGCTGGGATTACAGG [m6] | active |  |
| CTCAGCCTCCCTTGTAGCTGGGATTACAGG [m16] | active |  |
| CTCAGCCTCCCAAGTAGCTGAAAAAAAAAA [m3] | active |  |
| TCCCAAGTAGCTGGGATTACAGGAAAAAAA [RF] | active | binding result (MIF (Homo sapiens) [2]; low efficiency, variant of PS30): binds more weakly |
| CTCAGCCTCCAAAAAAAAAAGGATTACAGG [m2] | active |  |
| AAAAATCTCAGCCTCCCAAGTAGCTGGGAT [m20] | active |  |
| CTCAATTTCCCAAGTAGCTGGGATTACAGG [m18] | active |  |
| CCTGTAATCCCAAGTAGCTGGGATTACAGG [3'bSL] |  | activity on this sequence (MIF (Homo sapiens) [1]; endonuclease cleavage at 3' end, label: 3' biotin, single-stranded DNA, variant of SL): active |
| CTCAGCCTCCCAAGTAGCTGGGATTACAGG (double strand) [dsPS30] |  | activity on this sequence (MIF (Homo sapiens) [1]; 1-4 uM MIF, not cleaved, label: 5' biotin, variant of PS30): not active |
| CTCAAAATCCCAAAAAAAAGGGATTACAGG [m8] | active |  |
| AAAAGCCTCCCAAGTAGCTGGGATTACAGG [m7] | active |  |
| CTCAGCCTCCCAAAAAAAAGGGATTACAGG [m5] | active |  |
| CTCAGCCTCCCAAGTAAAAGGGATTACAGG [m11] | active |  |
| ACCTAAATGCTAGAGCTCGCTGATCAGCCT [L3] |  | binding result (MIF (Homo sapiens) [2]; much lower than PS30): binds more weakly; activity on this sequence (MIF (Homo sapiens) [1]; endo Y, exo Y, less efficient than PS30, label: 5' biotin, single-stranded DNA): less active |
| CAAGTAGCTGCTCAGCCTCCGGATTACAGG [m9] | active |  |
| AAAAAAACTCAGCCTCCCAAGTAGCTGGGA [3'bLF] |  | activity on this sequence (MIF (Homo sapiens) [1]; endonuclease cleavage at 3' end, label: 3' biotin, single-stranded DNA, variant of LF): active |
| AAAAAAAAAAAAAAAAAAAAAAAAAAAAAA [PA30] |  | binding result (MIF (Homo sapiens) [2]): no binding |
| CTCAGCCTCCGGATTACAGGCAAGTAGCTG [m10] | active |  |
| CTCAGCCTCCCAAGTAGCTGGGATTACAGG / TCCCAGCTACTTGGGAGGCTGAG [3E] |  | activity on this sequence (MIF (Homo sapiens) [1]; endo N, exo Y, label: 5' biotin, variant of PS30): active |
| AAAAAAAAAACAAGTAGCTGGGATTACAGG [3F1] |  | activity on this sequence (MIF (Homo sapiens) [1]; endo Y, exo Y, 29 nt product, label: 5' biotin, single-stranded DNA, variant of …): active |
| CTCAGCCAAAAAAATAGCTGGGATTACAGG [m4] | active |  |
| ACCTAAATGCTAGAGCTCGCTGATCAGCCT (double strand) [dsL3] |  | activity on this sequence (MIF (Homo sapiens) [1]; 1-4 uM MIF, not cleaved, label: 5' biotin, variant of L3): not active |
| CTCAGCCTCCCAAGTAGCAGGGATTACAGG [m15] | active |  |
| CTCAGCCTCCCAAGTAAATGGGATTACAGG [m12] | active |  |
